Sequences and labels used below:
T1: 3x Flag Matrin 3 wild-type (human) (human) (UniProt P43243)
T1 sequence: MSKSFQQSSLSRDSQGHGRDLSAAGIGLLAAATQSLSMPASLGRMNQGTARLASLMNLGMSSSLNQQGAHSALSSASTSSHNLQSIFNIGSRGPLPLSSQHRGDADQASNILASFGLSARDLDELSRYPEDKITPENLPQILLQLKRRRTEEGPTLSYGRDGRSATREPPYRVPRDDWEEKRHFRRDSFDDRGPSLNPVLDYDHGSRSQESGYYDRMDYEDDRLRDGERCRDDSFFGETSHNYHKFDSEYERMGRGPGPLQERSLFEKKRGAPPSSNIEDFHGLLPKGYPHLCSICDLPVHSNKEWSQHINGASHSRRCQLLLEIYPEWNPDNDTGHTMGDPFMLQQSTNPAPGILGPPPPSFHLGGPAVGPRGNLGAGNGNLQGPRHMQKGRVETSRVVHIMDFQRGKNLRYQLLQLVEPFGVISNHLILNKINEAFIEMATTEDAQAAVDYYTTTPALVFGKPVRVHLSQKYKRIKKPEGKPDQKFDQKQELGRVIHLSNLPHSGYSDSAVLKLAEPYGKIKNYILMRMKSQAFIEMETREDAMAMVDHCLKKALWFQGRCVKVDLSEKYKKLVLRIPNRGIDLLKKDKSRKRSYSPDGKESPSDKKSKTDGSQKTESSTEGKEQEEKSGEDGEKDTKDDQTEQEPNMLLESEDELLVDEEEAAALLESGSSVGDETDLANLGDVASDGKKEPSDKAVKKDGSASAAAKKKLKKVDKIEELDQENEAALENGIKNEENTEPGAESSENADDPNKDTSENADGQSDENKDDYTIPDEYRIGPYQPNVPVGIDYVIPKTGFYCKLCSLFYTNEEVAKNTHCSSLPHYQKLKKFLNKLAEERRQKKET

Chains of the proteins cited; added tags and fusions are not shown.
UniProt Q9Z1N5: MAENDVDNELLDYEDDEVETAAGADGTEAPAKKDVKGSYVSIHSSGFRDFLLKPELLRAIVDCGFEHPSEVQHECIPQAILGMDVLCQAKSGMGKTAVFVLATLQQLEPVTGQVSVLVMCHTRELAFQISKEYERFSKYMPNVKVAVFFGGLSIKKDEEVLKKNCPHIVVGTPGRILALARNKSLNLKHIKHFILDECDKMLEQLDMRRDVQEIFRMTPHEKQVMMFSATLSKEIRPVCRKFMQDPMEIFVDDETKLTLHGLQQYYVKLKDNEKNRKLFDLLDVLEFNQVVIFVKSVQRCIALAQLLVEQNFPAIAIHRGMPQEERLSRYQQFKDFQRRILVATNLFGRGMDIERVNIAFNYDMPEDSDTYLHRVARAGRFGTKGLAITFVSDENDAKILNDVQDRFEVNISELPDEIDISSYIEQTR

B1: Sarnp (Cip29) of NSC-34 cells (protein, UniProt Q9D1J3 1-210)
chain: MAAETVELHKLKLAELKQECLARGLETKGIKQDLINRLQAYLEDHAEEEANEEDVLGDETEEEEPKPIELPVKEEEPPEKAVDMASEKKVVKITSGIPQTERMQKRAERFNVPVSLESKKAARAARFGISSVPTKGLSSDTKPMVNLDKLKERAQRFGLNVSSISRKSEDDEKLKKRKERFGIVTSSAGTGTTEDTEAKKRKRAERFGIA
B2: 3x Flag Matrin 3 wild-type (human) (protein, UniProt P43243 1-847)
chain: MSKSFQQSSLSRDSQGHGRDLSAAGIGLLAAATQSLSMPASLGRMNQGTARLASLMNLGMSSSLNQQGAHSALSSASTSSHNLQSIFNIGSRGPLPLSSQHRGDADQASNILASFGLSARDLDELSRYPEDKITPENLPQILLQLKRRRTEEGPTLSYGRDGRSATREPPYRVPRDDWEEKRHFRRDSFDDRGPSLNPVLDYDHGSRSQESGYYDRMDYEDDRLRDGERCRDDSFFGETSHNYHKFDSEYERMGRGPGPLQERSLFEKKRGAPPSSNIEDFHGLLPKGYPHLCSICDLPVHSNKEWSQHINGASHSRRCQLLLEIYPEWNPDNDTGHTMGDPFMLQQSTNPAPGILGPPPPSFHLGGPAVGPRGNLGAGNGNLQGPRHMQKGRVETSRVVHIMDFQRGKNLRYQLLQLVEPFGVISNHLILNKINEAFIEMATTEDAQAAVDYYTTTPALVFGKPVRVHLSQKYKRIKKPEGKPDQKFDQKQELGRVIHLSNLPHSGYSDSAVLKLAEPYGKIKNYILMRMKSQAFIEMETREDAMAMVDHCLKKALWFQGRCVKVDLSEKYKKLVLRIPNRGIDLLKKDKSRKRSYSPDGKESPSDKKSKTDGSQKTESSTEGKEQEEKSGEDGEKDTKDDQTEQEPNMLLESEDELLVDEEEAAALLESGSSVGDETDLANLGDVASDGKKEPSDKAVKKDGSASAAAKKKLKKVDKIEELDQENEAALENGIKNEENTEPGAESSENADDPNKDTSENADGQSDENKDDYTIPDEYRIGPYQPNVPVGIDYVIPKTGFYCKLCSLFYTNEEVAKNTHCSSLPHYQKLKKFLNKLAEERRQKKET
B3: 3x Flag Matrin 3 P154S (human) (protein, UniProt P43243 1-847)
chain: MSKSFQQSSLSRDSQGHGRDLSAAGIGLLAAATQSLSMPASLGRMNQGTARLASLMNLGMSSSLNQQGAHSALSSASTSSHNLQSIFNIGSRGPLPLSSQHRGDADQASNILASFGLSARDLDELSRYPEDKITPENLPQILLQLKRRRTEEGSTLSYGRDGRSATREPPYRVPRDDWEEKRHFRRDSFDDRGPSLNPVLDYDHGSRSQESGYYDRMDYEDDRLRDGERCRDDSFFGETSHNYHKFDSEYERMGRGPGPLQERSLFEKKRGAPPSSNIEDFHGLLPKGYPHLCSICDLPVHSNKEWSQHINGASHSRRCQLLLEIYPEWNPDNDTGHTMGDPFMLQQSTNPAPGILGPPPPSFHLGGPAVGPRGNLGAGNGNLQGPRHMQKGRVETSRVVHIMDFQRGKNLRYQLLQLVEPFGVISNHLILNKINEAFIEMATTEDAQAAVDYYTTTPALVFGKPVRVHLSQKYKRIKKPEGKPDQKFDQKQELGRVIHLSNLPHSGYSDSAVLKLAEPYGKIKNYILMRMKSQAFIEMETREDAMAMVDHCLKKALWFQGRCVKVDLSEKYKKLVLRIPNRGIDLLKKDKSRKRSYSPDGKESPSDKKSKTDGSQKTESSTEGKEQEEKSGEDGEKDTKDDQTEQEPNMLLESEDELLVDEEEAAALLESGSSVGDETDLANLGDVASDGKKEPSDKAVKKDGSASAAAKKKLKKVDKIEELDQENEAALENGIKNEENTEPGAESSENADDPNKDTSENADGQSDENKDDYTIPDEYRIGPYQPNVPVGIDYVIPKTGFYCKLCSLFYTNEEVAKNTHCSSLPHYQKLKKFLNKLAEERRQKKET
B4: 3x Flag Matrin 3 F115C (human) (protein, UniProt P43243 1-847)
chain: MSKSFQQSSLSRDSQGHGRDLSAAGIGLLAAATQSLSMPASLGRMNQGTARLASLMNLGMSSSLNQQGAHSALSSASTSSHNLQSIFNIGSRGPLPLSSQHRGDADQASNILASCGLSARDLDELSRYPEDKITPENLPQILLQLKRRRTEEGPTLSYGRDGRSATREPPYRVPRDDWEEKRHFRRDSFDDRGPSLNPVLDYDHGSRSQESGYYDRMDYEDDRLRDGERCRDDSFFGETSHNYHKFDSEYERMGRGPGPLQERSLFEKKRGAPPSSNIEDFHGLLPKGYPHLCSICDLPVHSNKEWSQHINGASHSRRCQLLLEIYPEWNPDNDTGHTMGDPFMLQQSTNPAPGILGPPPPSFHLGGPAVGPRGNLGAGNGNLQGPRHMQKGRVETSRVVHIMDFQRGKNLRYQLLQLVEPFGVISNHLILNKINEAFIEMATTEDAQAAVDYYTTTPALVFGKPVRVHLSQKYKRIKKPEGKPDQKFDQKQELGRVIHLSNLPHSGYSDSAVLKLAEPYGKIKNYILMRMKSQAFIEMETREDAMAMVDHCLKKALWFQGRCVKVDLSEKYKKLVLRIPNRGIDLLKKDKSRKRSYSPDGKESPSDKKSKTDGSQKTESSTEGKEQEEKSGEDGEKDTKDDQTEQEPNMLLESEDELLVDEEEAAALLESGSSVGDETDLANLGDVASDGKKEPSDKAVKKDGSASAAAKKKLKKVDKIEELDQENEAALENGIKNEENTEPGAESSENADDPNKDTSENADGQSDENKDDYTIPDEYRIGPYQPNVPVGIDYVIPKTGFYCKLCSLFYTNEEVAKNTHCSSLPHYQKLKKFLNKLAEERRQKKET
B5: 3x Flag Matrin 3 T622A (human) (protein, UniProt P43243 1-847)
chain: MSKSFQQSSLSRDSQGHGRDLSAAGIGLLAAATQSLSMPASLGRMNQGTARLASLMNLGMSSSLNQQGAHSALSSASTSSHNLQSIFNIGSRGPLPLSSQHRGDADQASNILASFGLSARDLDELSRYPEDKITPENLPQILLQLKRRRTEEGPTLSYGRDGRSATREPPYRVPRDDWEEKRHFRRDSFDDRGPSLNPVLDYDHGSRSQESGYYDRMDYEDDRLRDGERCRDDSFFGETSHNYHKFDSEYERMGRGPGPLQERSLFEKKRGAPPSSNIEDFHGLLPKGYPHLCSICDLPVHSNKEWSQHINGASHSRRCQLLLEIYPEWNPDNDTGHTMGDPFMLQQSTNPAPGILGPPPPSFHLGGPAVGPRGNLGAGNGNLQGPRHMQKGRVETSRVVHIMDFQRGKNLRYQLLQLVEPFGVISNHLILNKINEAFIEMATTEDAQAAVDYYTTTPALVFGKPVRVHLSQKYKRIKKPEGKPDQKFDQKQELGRVIHLSNLPHSGYSDSAVLKLAEPYGKIKNYILMRMKSQAFIEMETREDAMAMVDHCLKKALWFQGRCVKVDLSEKYKKLVLRIPNRGIDLLKKDKSRKRSYSPDGKESPSDKKSKTDGSQKTESSAEGKEQEEKSGEDGEKDTKDDQTEQEPNMLLESEDELLVDEEEAAALLESGSSVGDETDLANLGDVASDGKKEPSDKAVKKDGSASAAAKKKLKKVDKIEELDQENEAALENGIKNEENTEPGAESSENADDPNKDTSENADGQSDENKDDYTIPDEYRIGPYQPNVPVGIDYVIPKTGFYCKLCSLFYTNEEVAKNTHCSSLPHYQKLKKFLNKLAEERRQKKET
B6: 3x Flag Matrin 3 S85C (human) (protein, UniProt P43243 1-847)
chain: MSKSFQQSSLSRDSQGHGRDLSAAGIGLLAAATQSLSMPASLGRMNQGTARLASLMNLGMSSSLNQQGAHSALSSASTSSHNLQCIFNIGSRGPLPLSSQHRGDADQASNILASFGLSARDLDELSRYPEDKITPENLPQILLQLKRRRTEEGPTLSYGRDGRSATREPPYRVPRDDWEEKRHFRRDSFDDRGPSLNPVLDYDHGSRSQESGYYDRMDYEDDRLRDGERCRDDSFFGETSHNYHKFDSEYERMGRGPGPLQERSLFEKKRGAPPSSNIEDFHGLLPKGYPHLCSICDLPVHSNKEWSQHINGASHSRRCQLLLEIYPEWNPDNDTGHTMGDPFMLQQSTNPAPGILGPPPPSFHLGGPAVGPRGNLGAGNGNLQGPRHMQKGRVETSRVVHIMDFQRGKNLRYQLLQLVEPFGVISNHLILNKINEAFIEMATTEDAQAAVDYYTTTPALVFGKPVRVHLSQKYKRIKKPEGKPDQKFDQKQELGRVIHLSNLPHSGYSDSAVLKLAEPYGKIKNYILMRMKSQAFIEMETREDAMAMVDHCLKKALWFQGRCVKVDLSEKYKKLVLRIPNRGIDLLKKDKSRKRSYSPDGKESPSDKKSKTDGSQKTESSTEGKEQEEKSGEDGEKDTKDDQTEQEPNMLLESEDELLVDEEEAAALLESGSSVGDETDLANLGDVASDGKKEPSDKAVKKDGSASAAAKKKLKKVDKIEELDQENEAALENGIKNEENTEPGAESSENADDPNKDTSENADGQSDENKDDYTIPDEYRIGPYQPNVPVGIDYVIPKTGFYCKLCSLFYTNEEVAKNTHCSSLPHYQKLKKFLNKLAEERRQKKET

Results are given in words; binding and its absence hold for the method and conditions named. In cells and extracts the contact can be indirect. Some results given as binding are weak or reduced against the parent protein; the word gives no strength. Sequences can lack the tags named with a protein.

The target of one test is T1, 3x Flag Matrin 3 wild-type (human) (human). As to the kind of experiment: co-IP; Flag M2 affinity gel on nuclear fractions (400 µg total protein) of NSC-34 cells stably expressing 3x Flag Matrin 3; western blot for Aly, Ddx39b, Sarnp.
Take B1: the binding result is “binds”.

The next test deals with Ddx39b (UAP56) of NSC-34 cells (mouse (endogenous in NSC-34)) (UniProt Q9Z1N5). As to the kind of experiment: co-IP; reverse IP: antibodies against Aly or Ddx39b on nuclear fractions of NSC-34 cells stably expressing 3x Flag Matrin 3 wild-type or mutant; western blot for Flag, quantified as Flag signal over bait signal. Background: A western blot detects proteins with antibodies after separation by electrophoresis.
As for B2, the binding result is given as “binds”.

As for B3, the binding result is recorded as “binds”.

With B4, the binding entry is “binds”.

On to B5, for which the binding result is reported as “binds”.

Turning to B6, the binding entry is “binds”.

The values are drawn from paper PMC5674072.
